Data taken from the supplement of paper PMC8728848.
The other results are listed elsewhere or left out.

Columns and labels:
Test in all cases: glycan array binding signal (z-score within array); higher = stronger binding
Details in all cases: glycan notation: IUPAC condensed, linker removed
Fuc(a1-2)Gal = target: Fuc(a1-2)Gal
Procedure, shortened: (§1)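 Glycan array data came from 3228 arrays in the Consortium for Functional Glycomics database, and only arrays with an available protein sequence were kept. Glycan names were put into IUPAC-condensed notation, and columns mapping to the same glycan were averaged. The binding signal is a within-array Z-score, averaged across arrays of one protein sequence run at different concentrations or buffers and across linkers. A negative Z-score can be read as non-binding.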

Fuc(a1-2)Gal(b1-3)GalNAc = target: Fuc(a1-2)Gal(b1-3)GalNAc
Procedure, shortened: as §1

[1] = target: Fuc(a1-2)Gal(b1-3)GalNAc(a1-3)[Fuc(a1-2)]Gal(b1-4)Glc
Procedure, shortened: as §1

[2] = target: Fuc(a1-2)Gal(b1-3)GalNAc(a1-3)[Fuc(a1-2)]Gal(b1-4)GlcNAc
Procedure, shortened: as §1

[3] = target: Fuc(a1-2)Gal(b1-3)GalNAc(b1-3)Gal
Procedure, shortened: as §1

[4] = target: Fuc(a1-2)Gal(b1-3)GalNAc(b1-3)Gal(a1-4)Gal(b1-4)Glc
Procedure, shortened: as §1

[5] = target: Fuc(a1-2)Gal(b1-3)GalNAc(b1-4)[Neu5Ac(a2-3)]Gal(b1-4)Glc
Procedure, shortened: as §1

Fuc(a1-2)Gal(b1-3)GlcNAc = target: Fuc(a1-2)Gal(b1-3)GlcNAc
Procedure, shortened: as §1

[6] = target: Fuc(a1-2)Gal(b1-3)GlcNAc(b1-2)Man(a1-3)[Fuc(a1-2)Gal(b1-3)GlcNAc(b1-2)Man(a1-6)]Man(b1-4)GlcNAc(b1-4)GlcNAc
Procedure, shortened: as §1

[7] = target: Fuc(a1-2)Gal(b1-3)GlcNAc(b1-2)Man(a1-3)[Fuc(a1-2)Gal(b1-3)GlcNAc(b1-2)Man(a1-6)]Man(b1-4)GlcNAc(b1-4)[Fuc(a1-6)]GlcNAc
Procedure, shortened: as §1

[8] = target: Fuc(a1-2)Gal(b1-3)GlcNAc(b1-3)Gal(b1-4)Glc
Procedure, shortened: as §1

[9] = target: Fuc(a1-2)Gal(b1-3)GlcNAc(b1-3)GalNAc
Procedure, shortened: as §1

[10] = target: Fuc(a1-2)Gal(b1-3)GlcNAc(b1-3)[Fuc(a1-2)Gal(b1-3)GlcNAc(b1-6)]GalNAc
Procedure, shortened: as §1

[11] = target: Fuc(a1-2)Gal(b1-3)GlcNAc(b1-3)[Gal(b1-4)GlcNAc(b1-6)]Gal(b1-4)Glc
Procedure, shortened: as §1

[12] = target: Fuc(a1-2)Gal(b1-3)GlcNAc(b1-3)[Neu5Ac(a2-6)Gal(b1-4)GlcNAc(b1-6)]Gal(b1-4)Glc
Procedure, shortened: as §1

[13] = target: Fuc(a1-2)Gal(b1-3)GlcNAc6S
Procedure, shortened: as §1

[14] = target: Fuc(a1-2)Gal(b1-3)[Fuc(a1-4)]GlcNAc
Procedure, shortened: as §1

[15] = target: Fuc(a1-2)Gal(b1-3)[Fuc(a1-4)]GlcNAc(b1-2)Man(a1-3)[Fuc(a1-2)Gal(b1-3)[Fuc(a1-4)]GlcNAc(b1-2)Man(a1-3)]Man(b1-4)GlcNAc(b1-4)GlcNAc
Procedure, shortened: as §1

[16] = target: Fuc(a1-2)Gal(b1-3)[Fuc(a1-4)]GlcNAc(b1-2)Man(a1-3)[Fuc(a1-2)Gal(b1-3)[Fuc(a1-4)]GlcNAc(b1-2)Man(a1-6)]Man(b1-4)GlcNAc(b1-4)[Fuc(a1-6)]GlcNAc(b1-4)[Fuc(a1-6)]GlcNAc
Procedure, shortened: as §1

[17] = target: Fuc(a1-2)Gal(b1-3)[Fuc(a1-4)]GlcNAc(b1-3)[Fuc(a1-3)[Gal(b1-4)]GlcNAc(b1-6)]Gal(b1-4)Glc
Procedure, shortened: as §1

[18] = target: Fuc(a1-2)Gal(b1-3)[Fuc(a1-4)]GlcNAc(b1-3)[Gal(b1-4)GlcNAc(b1-6)]Gal(b1-4)Glc
Procedure, shortened: as §1

[19] = target: Fuc(a1-2)Gal(b1-4)Fuc(a1-3)]GlcNAc(b1-2)Man(a1-3)[Fuc(a1-2)Gal(b1-4)[Fuc(a1-3)]GlcNAc(b1-2)Man(a1-6)]Man(b1-4)GlcNAc(b1-4)GlcNAc
Procedure, shortened: as §1

Fuc(a1-2)Gal(b1-4)Glc = target: Fuc(a1-2)Gal(b1-4)Glc
Procedure, shortened: as §1

Fuc(a1-2)Gal(b1-4)Glc6S = target: Fuc(a1-2)Gal(b1-4)Glc6S
Procedure, shortened: as §1

Fuc(a1-2)Gal(b1-4)GlcNAc = target: Fuc(a1-2)Gal(b1-4)GlcNAc
Procedure, shortened: as §1

[20] = target: Fuc(a1-2)Gal(b1-4)GlcNAc(b1-2)Man
Procedure, shortened: as §1

[21] = target: Fuc(a1-2)Gal(b1-4)GlcNAc(b1-2)Man(a1-3)[Fuc(a1-2)Gal(b1-4)GlcNAc(b1-2)Man(a1-6)]Man(b1-4)GlcNAc(b1-4)GlcNAc
Procedure, shortened: as §1

[22] = target: Fuc(a1-2)Gal(b1-4)GlcNAc(b1-2)Man(a1-3)[Fuc(a1-2)Gal(b1-4)GlcNAc(b1-2)Man(a1-6)]Man(b1-4)GlcNAc(b1-4)[Fuc(a1-6)]GlcNAc
Procedure, shortened: as §1

[23] = target: Fuc(a1-2)Gal(b1-4)GlcNAc(b1-2)[Fuc(a1-2)Gal(b1-4)GlcNAc(b1-4)]Man(a1-3)[Fuc(a1-2)Gal(b1-4)GlcNAc(b1-2)Man(a1-6)]Man(b1-4)GlcNAc(b1-4)GlcNAc
Procedure, shortened: as §1

[24] = target: Fuc(a1-2)Gal(b1-4)GlcNAc(b1-3)Gal(b1-4)GlcNAc
Procedure, shortened: as §1

B1: Clec12b (Mus musculus), Q149M0 (protein)
chain: MSDEVTYATLMLQDSARVRGNQDGNNLRKEGHPAQSSLWRGAALSLMTLCLVLVTGLVTLATMFLQVSNDINSDSEKLSQLQKSIHPQQDNLSESLNSSRKSLTEESLQSQISALLERQEQMATKLCKEFLIHASDHKCNPCPKTWQWYGNSCYYFSINEEKSWSDSRKDCIDKNATLVKIDSTEERDLLQSQLSLTFSFFWLGLSWNSSGRNWLWEDGSFPPPTLFSDKELASFNGSRDCAYFERGNIYASRCSAEIPWICEKTASLVKTEDLD
glycan array binding signal (z-score) (Fuc(a1-2)Gal): -0.119 | glycan array binding signal (z-score) (Fuc(a1-2)Gal(b1-3)GalNAc): -0.451 | glycan array binding signal (z-score) [1]: 0.847 | glycan array binding signal (z-score) [2]: 0.211 | glycan array binding signal (z-score) [3]: -0.622 | glycan array binding signal (z-score) [4]: -0.395 | glycan array binding signal (z-score) [5]: 2.03 | glycan array binding signal (z-score) (Fuc(a1-2)Gal(b1-3)GlcNAc): 0.018 | glycan array binding signal (z-score) [6]: 2.66 | glycan array binding signal (z-score) [7]: 0.184 | glycan array binding signal (z-score) [8]: 3.25 | glycan array binding signal (z-score) [9]: -0.484 | glycan array binding signal (z-score) [10]: 0.827 | glycan array binding signal (z-score) [11]: -0.698 | glycan array binding signal (z-score) [12]: -0.497 | glycan array binding signal (z-score) [13]: -0.334 | glycan array binding signal (z-score) [14]: -0.148 | glycan array binding signal (z-score) [15]: 2.58 | glycan array binding signal (z-score) [16]: -0.552 | glycan array binding signal (z-score) [17]: -0.687 | glycan array binding signal (z-score) [18]: -0.776 | glycan array binding signal (z-score) [19]: 1.06 | glycan array binding signal (z-score) (Fuc(a1-2)Gal(b1-4)Glc): -0.506 | glycan array binding signal (z-score) (Fuc(a1-2)Gal(b1-4)Glc6S): -0.606 | glycan array binding signal (z-score) (Fuc(a1-2)Gal(b1-4)GlcNAc): -0.547 | glycan array binding signal (z-score) [20]: -0.154 | glycan array binding signal (z-score) [21]: 0.998 | glycan array binding signal (z-score) [22]: -0.001 | glycan array binding signal (z-score) [23]: -0.153 | glycan array binding signal (z-score) [24]: 1.07
